The text below walks through data of paper PMC11672801 (Antibiotics, 2024).

For part of these data: HELM strings list residues between dots; [ac] is acetyl, [am] amide, other brackets name non-standard units. Where a SMILES comes first, the peptide text is derived from it. [ ]: non-standard residue; d: D form. The star is where a group is joined. Levofloxacinoyl = C[C@H]1COc2c(N3CCN(C)CC3)c(F)cc3c(=O)c(C(=O)*)cn1c23; βAla = NCCC(=O)O Some results are limits rather than exact numbers.

Data set [1] is described as follows: general procedure: Fmoc solid-phase peptide synthesis; Rink amide resin (1 g, 0.6 mmol/g); DIC/Oxyma pure. The note with it: whole synthesis, overall, scale of the general procedure 1 g resin.
For data set [2], the system named is cancer cells (MCF-7, HeLa). Further details: species or system human. The note with it: HC50 / lowest IC50. The protocol:
The selectivity of action of the analogs against micro-organisms or cancer cells was further evaluated through calculation of their selectivity indexes (SIs). SIs were determined using either the MIC on micro-organisms or IC50 on cancer cells compared to HC50 values, and they are reported in Table 6.

Data set [3] relates to micro-organisms. The data set is described as follows: Selectivity index: HC50 divided by lowest MIC on micro-organisms. The following applies: for SI Based on MIC: HC50 / lowest MIC.

“PEPTIDE1{F.L.K.G.L.M.G.V.I.[dA].S.L.F.K.[am]}$$$$V2.0”: the isolated yield in data set [1] worked out at 7.6%.

“PEPTIDE1{F.L.S.[dA].I.V.G.M.L.G.K.L.F.[am]}$$$$V2.0” gave an isolated yield in data set [1] of 68.6%.

As for `CC[C@H](C)[C@H](NC(=O)[C@@H](NC(=O)CNC(=O)[C@H](CCSC)NC(=O)[C@H](CC(C)C)NC(=O)[C@H](CCCCN)NC(=O)[C@H](CCCCN)NC(=O)[C@H](CC(C)C)NC(=O)[C@H](Cc1ccccc1)NC(=O)CCNC(=O)c1cn2c3c(c(N4CCN(C)CC4)c(F)cc3c1=O)OC[C@@H]2C)C(C)C)C(=O)N[C@H](C)C(=O)N[C@@H](CO)C(=O)N[C@@H](CC(C)C)C(=O)N[C@@H](Cc1ccccc1)C(N)=O` [RLFP-4 (8), LF-β-Ala-Phe^1-Leu^2-Lys^3-Lys^4-Leu^5-Met^6-Gly^7-Val^8-Ile^9-D-Ala^10-Ser^11-Leu^12-Phe^13-NH2] ({Levofloxacinoyl-βAla}-FLKKLMGVI[dA]SLF-NH2), the “SI Based on IC50” value in data set [2] is given as 0.2. For the same compound, in data set [3], the “SI Based on MIC” value is listed as 2.8.

“PEPTIDE1{F.L.K.G.L.M.G.V.I.[dA].S.L.F.K.[am]}|PEPTIDE2{[LF]}$PEPTIDE1,PEPTIDE2,14:R3-1:R2$$$V2.0” gave an isolated yield in data set [1] of 22.5%.

As for `CC[C@H](C)[C@H](NC(=O)[C@@H](NC(=O)CNC(=O)[C@H](CCSC)NC(=O)[C@H](CC(C)C)NC(=O)CNC(=O)[C@H](CCCCN)NC(=O)[C@H](CC(C)C)NC(=O)[C@@H](N)Cc1ccccc1)C(C)C)C(=O)N[C@H](C)C(=O)N[C@@H](CO)C(=O)N[C@@H](CC(C)C)C(=O)N[C@@H](Cc1ccccc1)C(=O)N[C@@H](CCCCN)C(N)=O` [RSP-1 (3), H-Phe^1-Leu^2-Lys^3-Gly^4-Leu^5-Met^6-Gly^7-Val^8-Ile^9-D-Ala^10-Ser^11-Leu^12-Phe^13-Lys^14-NH2] (H-FLKGLMGVI[dA]SLFK-NH2), in data set [2], the “SI Based on IC50” value came to 1.5. Besides, in data set [3], the “fold increase of SI on micro-organisms versus parent analog 2” value worked out at 3.7 fold and the “SI Based on MIC” value was found to be 32.6.

As to “PEPTIDE1{F.L.K.G.L.M.G.V.I.[dA].S.L.F.[am]}$$$$V2.0”, the isolated yield in data set [1] was 24.63%.

Regarding “PEPTIDE1{[LF].[bAla].F.L.K.K.L.M.G.V.I.[dA].S.L.F.[am]}$$$$V2.0”, the isolated yield in data set [1] is 25%.

Turning to `CC[C@H](C)[C@H](NC(=O)[C@@H](NC(=O)CNC(=O)[C@H](CCSC)NC(=O)[C@H](CC(C)C)NC(=O)CNC(=O)[C@H](CCCCNC(=O)c1cn2c3c(c(N4CCN(C)CC4)c(F)cc3c1=O)OC[C@@H]2C)NC(=O)[C@H](CC(C)C)NC(=O)[C@@H](N)Cc1ccccc1)C(C)C)C(=O)N[C@H](C)C(=O)N[C@@H](CO)C(=O)N[C@@H](CC(C)C)C(=O)N[C@@H](Cc1ccccc1)C(=O)N[C@@H](CCCCN)C(N)=O` [RLFP-2 (5), H-Phe^1-Leu^2-Lys^3(LF)-Gly^4-Leu^5-Met^6-Gly^7-Val^8-Ile^9-D-Ala^10-Ser^11-Leu^12-Phe^13-Lys^14-NH2] (H-FLK(Levofloxacinoyl)GLMGVI[dA]SLFK-NH2), in data set [2], the “SI Based on IC50” value was <0.2. Also, the “SI Based on MIC” value in data set [3] was found to be 0.5.

In the case of `CC[C@H](C)[C@H](NC(=O)[C@@H](NC(=O)CNC(=O)[C@H](CCSC)NC(=O)[C@H](CC(C)C)NC(=O)[C@H](CCCCN)NC(=O)[C@H](CCCCN)NC(=O)[C@H](CC(C)C)NC(=O)[C@@H](N)Cc1ccccc1)C(C)C)C(=O)N[C@H](C)C(=O)N[C@@H](CO)C(=O)N[C@@H](CC(C)C)C(=O)N[C@@H](Cc1ccccc1)C(N)=O` [RSP-4 (7), H-Phe^1-Leu^2-Lys^3-Lys^4-Leu^5-Met^6-Gly^7-Val^8-Ile^9-D-Ala^10-Ser^11-Leu^12-Phe^13-NH2] (H-FLKKLMGVI[dA]SLF-NH2), the “SI Based on IC50” value in data set [2] was >2.5. The “SI Based on MIC” value in data set [3] is >8.0.

On to `CC[C@H](C)[C@H](NC(=O)[C@@H](NC(=O)CNC(=O)[C@H](CCSC)NC(=O)[C@H](CC(C)C)NC(=O)CNC(=O)[C@H](CCCCN)NC(=O)[C@H](CC(C)C)NC(=O)[C@@H](N)Cc1ccccc1)C(C)C)C(=O)N[C@H](C)C(=O)N[C@@H](CO)C(=O)N[C@@H](CC(C)C)C(=O)N[C@@H](Cc1ccccc1)C(=O)N[C@@H](CCCCNC(=O)c1cn2c3c(c(N4CCN(C)CC4)c(F)cc3c1=O)OC[C@@H]2C)C(N)=O` [RLFP-1 (4), H-Phe^1-Leu^2-Lys^3-Gly^4-Leu^5-Met^6-Gly^7-Val^8-Ile^9-D-Ala^10-Ser^11-Leu^12-Phe^13-Lys^14(LF)-NH2] (H-FLKGLMGVI[dA]SLFK(Levofloxacinoyl)-NH2), for which the “SI Based on IC50” value in data set [2] is listed as <0.9. Further, in data set [3], the “SI Based on MIC” value amounted to 3.9.

Regarding “PEPTIDE1{F.L.K.K.L.M.G.V.I.[dA].S.L.F.[am]}$$$$V2.0”, the isolated yield in data set [1] is recorded as 28%.

As for `CC[C@H](C)[C@H](NC(=O)[C@@H](C)NC(=O)[C@H](CO)NC(=O)[C@H](CC(C)C)NC(=O)[C@@H](N)Cc1ccccc1)C(=O)N[C@H](C(=O)NCC(=O)N[C@@H](CCSC)C(=O)N[C@@H](CC(C)C)C(=O)NCC(=O)N[C@@H](CCCCN)C(=O)N[C@@H](CC(C)C)C(=O)N[C@@H](Cc1ccccc1)C(N)=O)C(C)C` [NST-2 (1), H-Phe^1-Leu^2-Ser^3-D-Ala^4-Ile^5-Val^6-Gly^7-Met^8-Leu^9-Gly^10-Lys^11-Leu^12-Phe^13-NH2] (H-FLS[dA]IVGMLGKLF-NH2), the “SI Based on IC50” value in data set [2] was found to be 5.0. The “SI Based on MIC” value in data set [3] was 14.4.

With `CC[C@H](C)[C@H](NC(=O)[C@@H](NC(=O)CNC(=O)[C@H](CCSC)NC(=O)[C@H](CC(C)C)NC(=O)CNC(=O)[C@H](CCCCN)NC(=O)[C@H](CC(C)C)NC(=O)[C@@H](N)Cc1ccccc1)C(C)C)C(=O)N[C@H](C)C(=O)N[C@@H](CO)C(=O)N[C@@H](CC(C)C)C(=O)N[C@@H](Cc1ccccc1)C(N)=O` [RNST-2 (2), H-Phe^1-Leu^2-Lys^3-Gly^4-Leu^5-Met^6-Gly^7-Val^8-Ile^9-D-Ala^10-Ser^11-Leu^12-Phe^13-NH2] (H-FLKGLMGVI[dA]SLF-NH2), the “SI Based on IC50” value in data set [2] was 0.2. In data set [3], the “SI Based on MIC” value worked out at 8.8.

In the case of `CC[C@H](C)[C@H](NC(=O)[C@@H](NC(=O)CNC(=O)[C@H](CCSC)NC(=O)[C@H](CC(C)C)NC(=O)CNC(=O)[C@H](CCCCN)NC(=O)[C@H](CC(C)C)NC(=O)[C@H](Cc1ccccc1)NC(=O)CCNC(=O)c1cn2c3c(c(N4CCN(C)CC4)c(F)cc3c1=O)OC[C@@H]2C)C(C)C)C(=O)N[C@H](C)C(=O)N[C@@H](CO)C(=O)N[C@@H](CC(C)C)C(=O)N[C@@H](Cc1ccccc1)C(=O)N[C@@H](CCCCN)C(N)=O` [RLFP-3 (6), LF-β-Ala-Phe^1-Leu^2-Lys^3-Gly^4-Leu^5-Met^6-Gly^7-Val^8-Ile^9-D-Ala^10-Ser^11-Leu^12-Phe^13-Lys^14-NH2] ({Levofloxacinoyl-βAla}-FLKGLMGVI[dA]SLFK-NH2), in data set [2], the “SI Based on IC50” value is on record as 0.5. The “SI Based on MIC” value in data set [3] came to 4.2.

For “LF-β-Ala-Phe^1-Leu^2-Lys^3-Gly^4-Leu^5-Met^6-Gly^7-Val^8-Ile^9-D-Ala^10-Ser^11-Leu^12-Phe^13-Lys^14-NH2”, the isolated yield in data set [1] was found to be 26%.

Regarding “PEPTIDE1{[LF].[bAla].F.L.K.G.L.M.G.V.I.[dA].S.L.F.K.[am]}$$$$V2.0”, the isolated yield in data set [1] was found to be 21%.

The compound “PEPTIDE1{F.L.K.G.L.M.G.V.I.[dA].S.L.F.K.[am]}|PEPTIDE2{[LF]}$PEPTIDE1,PEPTIDE2,3:R3-1:R2$$$V2.0” gave an isolated yield in data set [1] of 17%.

In turn, “LF-β-Ala-Phe^1-Leu^2-Lys^3-Lys^4-Leu^5-Met^6-Gly^7-Val^8-Ile^9-D-Ala^10-Ser^11-Leu^12-Phe^13-NH2” registered an isolated yield in data set [1] of 31%.
